# Reference: the supplement of paper PMC10735217
# Counter-ions that a name gives are not always drawn. The list shows a part of the results. This data set is noisy: repeats of one test often differ as much as different tests do.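 Human kidney-derived cells stably carry a construct in which eight TEAD-binding elements drive luciferase, measured by luminescence in a drug-repurposing library screen. A hit is any compound whose signal exceeds the plate mean by more than five robust Z scores.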
# System: HEK293A TEAD-LUC reporter
# Assay: TEAD-luciferase reporter activity (YAP activation), robust Z score vs plate; higher = stronger YAP/TEAD activation
# Details: 24 h
Structure (SMILES),TEAD-luciferase reporter activity (compound concentration: 200 nM),TEAD-luciferase reporter activity (compound concentration: 2 uM),TEAD-luciferase reporter activity (compound concentration: 10 uM)
CC(=O)N[C@@H](CSC(=O)c1ccccc1O)C(=O)O [Salnacedin],inactive: -0.901,inactive: 0.0198,inactive: 0.0173
C[N+](C)(C)NCCC(=O)[O-] [Mildronate],inactive: -0.792,,inactive: -1.14
CC1(C)O[C@H]2O[C@H]([C@H](O)CO)[C@H](O)[C@H]2O1,inactive: 0.00741,inactive: 0.308,inactive: -0.687
Cc1onc(-c2ccccc2Cl)c1C(=O)N[C@@H]1C(=O)N2[C@@H]1SC(C)(C)[C@@H]2C(=O)[O-],inactive: 1.28,inactive: -0.521,inactive: -0.326
CCCNCC(O)COc1ccc(SC)cc1 (centres undefined),inactive: -1.56,inactive: -0.192,inactive: 2.89
O=C1CCCCCCCCCCCCCCO1 [Conrex Permeation Enhancer-215],inactive: 1.15,inactive: -0.159,inactive: 0.0978
COc1cc(NS(=O)(=O)c2ccc(N)cc2)nc(OC)n1,inactive: -0.833,inactive: -0.202,inactive: 1.12
"O=C(/C=C/c1ccc(CN(CCO)CCc2c[nH]c3ccccc23)cc1)NO [LAQ824 (NVP-LAQ824, Dacinostat)]",active: 31,,active: 41.5
O=C(/C=C/c1ccc(CN(CCO)CCc2c[nH]c3ccccc23)cc1)NO,,active: 26.2,
CC(=O)Oc1ccccc1C(=O)OC1OC(=O)c2ccccc21 (centres undefined) [talosalate],inactive: 1.54,inactive: -2.04,inactive: 1.13
CCCOCCn1c(=O)c(N2CCN(CCO)CC2)nc2cnc(-c3ccc(OC)nc3)cc21,inactive: 0.938,inactive: 0.0622,inactive: -0.533
CSCC[C@H](NC(=O)[C@H](Cc1c[nH]c2ccccc12)NC(=O)CCNC(=O)OC(C)(C)C)C(=O)N[C@@H](CC(=O)O)C(=O)N[C@@H](Cc1ccccc1)C(N)=O [Pentagastrin],inactive: 0.882,inactive: -0.352,inactive: -1.74
O=C1NCCN1C1CCN(CC[C@@H]2COc3ccccc3O2)CC1,inactive: -0.304,inactive: 3.27,inactive: 0.00606
CC(=O)NC1CCN(c2nc3ncccc3o2)C1 (centres undefined),inactive: -0.96,,inactive: -0.867
O=C1NCc2ccccc2CC12CCCN2Cc1cccc(O)c1 (centres undefined),inactive: -1.89,,inactive: -1.8
O=C(Nc1ccc2nc(O)oc2c1)C(=O)N1CCC(Cc2ccc(F)cc2)CC1 [radiprodil],inactive: -2.49,inactive: -1.85,inactive: 3.84
O=C(Cc1ccccn1)NC1CCN(c2nc3ncccc3o2)CC1,inactive: -1.1,,inactive: 0.907
COC(=O)N[C@H](C(=O)N1CCC[C@H]1c1ncc(C#CC#Cc2ccc(-c3cnc([C@@H]4CCCN4C(=O)[C@@H](NC(=O)OC)C(C)C)[nH]3)cc2)[nH]1)C(C)C,inactive: -1.39,inactive: -1.1,inactive: -1.61
CN1CCN(C/C(=N\O)c2ccc(CCc3ccccc3)cc2)CC1,inactive: -1.79,inactive: -1.05,inactive: 1.18
CC[N+](C)(C)C(C)CC(c1ccccc1)c1ccccc1 (centres undefined),inactive: -0.629,inactive: 3.11,inactive: 1.32

Structure (SMILES),TEAD-luciferase reporter activity (compound concentration: 200 nM),TEAD-luciferase reporter activity (compound concentration: 2 uM),TEAD-luciferase reporter activity (compound concentration: 10 uM)
CCS(=O)(=O)c1ccc(/C=N/NC(N)=S)cc1,inactive: 0.615,inactive: -0.446,inactive: 0.0863
NCCc1cc[nH]n1,inactive: 0.626,inactive: -0.596,inactive: 1.96
CCC1(c2ccccc2)NC(=O)N(C)C1=O (centres undefined),inactive: -0.415,inactive: 0.705,inactive: -0.494
Cc1ccccc1-c1cc(N2CCOCC2)ncc1N(C)C(=O)C(C)(C)c1cc(C(F)(F)F)cc(C(F)(F)F)c1,inactive: -0.0959,inactive: 0.154,inactive: -0.329
CC(C(=O)O)c1ccc(C2CCCCC2)c2ccccc12 (centres undefined),inactive: 0.792,inactive: -0.496,inactive: 0.206
CCN1CCc2nc(N)oc2CC1 [azepexole],inactive: -0.663,inactive: -1.31,inactive: -1.13
CC1(C)S[C@@H]2[C@H](NC(=O)COc3ccccc3)C(=O)N2[C@H]1C(=O)O [Phenoxymethylpenicillin],inactive: -0.8,inactive: 2.55,inactive: 0.0112
CN(C)c1cccc(-c2c3c(=O)n(-c4ccccc4Cl)[nH]c3cc(=O)n2C)c1,inactive: -0.63,inactive: -1.85,inactive: -0.474
O=C(c1ccccc1F)N1CCC(N2Cc3ccccc3C2=O)CC1,inactive: -1.3,,inactive: -0.72
N#C/N=C(\NCCc1ccccc1Cl)c1cncc(N)c1,inactive: -0.922,inactive: 0.341,inactive: 1.72
CC[C@]12CCCN3CCc4c(n(c5ccccc45)[C@@](O)(C(=O)OC)C1)[C@@H]32,inactive: 1.5,inactive: 1.79,active: 5.98
C[C@H]1C[C@H]2[C@@H]3CCC4=CC(=O)C=C[C@]4(C)[C@@]3(F)[C@@H](O)C[C@]2(C)[C@@]1(O)C(=O)CO [betamethasone],,inactive: 2.83,
C[C@H]1C[C@H]2[C@@H]3CCC4=CC(=O)C=C[C@]4(C)[C@@]3(F)[C@@H](O)C[C@]2(C)[C@@]1(O)C(=O)CO [Betamethasone (Celestone)],inactive: -1.49,,inactive: 3.31
C[C@H]1C[C@H]2[C@@H]3CCC4=CC(=O)C=C[C@]4(C)[C@@]3(F)[C@@H](O)C[C@]2(C)[C@@]1(O)C(=O)CO,,inactive: 1.66,
CCCCCCOc1cccc2cc(-c3nnn[nH]3)c(=O)oc12,inactive: -1.34,inactive: 0.0946,inactive: 2.1
c1ccc2ccccc2c1,inactive: 0.522,inactive: -0.969,inactive: -1.55
O=C1Nc2ccc(F)c(F)c2[C@](C#CC2CC2)(C(F)(F)F)N1,inactive: -1.2,inactive: 1.34,inactive: 0.293
O=c1oc(CCN2CCN(c3ccccc3)CC2)c(-c2ccc(Cl)cc2)o1,inactive: -1.11,inactive: 0.742,inactive: -1.72
CO[C@@]1(NC(=O)C(C(=O)[O-])c2ccsc2)C(=O)N2C(C(=O)[O-])C(C)(C)S[C@@H]21 (some centres undefined) [Temocillin sodium],,inactive: -1.95,
CO[C@@]1(NC(=O)C(C(=O)[O-])c2ccsc2)C(=O)N2C(C(=O)[O-])C(C)(C)S[C@@H]21 (some centres undefined),inactive: 1.58,,inactive: -0.338

Structure (SMILES),TEAD-luciferase reporter activity (compound concentration: 200 nM),TEAD-luciferase reporter activity (compound concentration: 2 uM),TEAD-luciferase reporter activity (compound concentration: 10 uM)
COc1ccccc1C(=O)N1CCC2(CC1)NC(=O)c1ccccc1O2,inactive: -0.942,,inactive: 2.19
CN1CCN(C2=Nc3cscc3/C(=C\C#N)c3cscc32)CC1 [tenilapine],inactive: -1.4,inactive: 0.312,active: 5.32
C=CC(=O)Nc1cccc(Oc2nc(Nc3ccc(N4CCN(C)CC4)cc3)nc3ccsc23)c1,,inactive: -0.395,
C=CC(=O)Nc1cccc(Oc2nc(Nc3ccc(N4CCN(C)CC4)cc3)nc3ccsc23)c1 [Olmutinib],inactive: 1.62,,inactive: 1.25
CC(C)CCNC(=O)[C@@H]1CCCN1C(=O)N(CCC(C)C)CC(=O)NO,inactive: 1.73,inactive: 1.51,inactive: 2.69
CC(N)C12CC3CC(CC(C3)C1)C2 (centres undefined) [Rimantadine hydrochloride],,inactive: -0.475,
CC(N)C12CC3CC(CC(C3)C1)C2 (centres undefined),inactive: -1.85,,inactive: -1.33
CCCCN(CCCC)CCC(O)c1cc(-c2ccc(C(F)(F)F)cc2)nc(-c2ccc(C(F)(F)F)cc2)c1 (centres undefined),inactive: -1.2,inactive: -1.21,inactive: -0.732
O=C1NC(=O)C(Sc2ccc3ccccc3c2)S1 (centres undefined),inactive: 0.172,inactive: 0.313,inactive: -0.978
CS(=O)(=O)Nc1cc2c(cc1Oc1ccccc1)C(=O)CC2,inactive: -0.151,inactive: 0.209,inactive: 0.937
NCCc1c[nH]c2ccc(OCC(=O)N[C@@H](Cc3ccc(O)cc3)C(=O)NCC(N)=O)cc12,inactive: -2.1,inactive: 0.502,inactive: 3.43
COc1cc(C(=O)N2CCN(Cc3c(-c4ccccc4)c4cc(Cl)ccc4[nH]c3=O)CC2)cc(OC)c1OC,inactive: -0.263,inactive: 0.0458,inactive: 0.519
CN(C)C(=O)c1ccc(S(=O)(=O)c2ccc(NC(=O)[C@@](C)(O)C(F)(F)F)c(Cl)c2)cc1,inactive: 0.497,inactive: -0.95,inactive: 1.34
O=C(Nc1ccc([N+](=O)[O-])cc1Cl)c1cc(Cl)ccc1O [Niclosamide],inactive: 2.95,inactive: -3.73,inactive: -3.25
O=C1OCCN1/N=C/c1ccc([N+](=O)[O-])o1 [Furazolidone],inactive: -1.03,inactive: 0.711,inactive: -2.1
CCC1CN(c2cc3c(cc2F)c(=O)c(C(=O)O)cn3C2CC2)CCN1 (centres undefined),inactive: -1.49,inactive: 1.4,inactive: -1.06
OC[C@H]1CNC[C@@H](O)[C@@H]1O,inactive: 1.71,inactive: -0.348,inactive: 1.38
CC(C)n1c(=O)n(C(=O)N[C@H]2C[C@H]3CC[C@@H](C2)N3C)c2ccccc21,inactive: -2.36,inactive: 0.446,inactive: -0.328
NS(=O)(=O)c1ccc(N2CCCCS2(=O)=O)cc1 [Sulthiame],inactive: -0.27,inactive: -2.43,inactive: -1.64

# Nothing new here: entries from further up.
Structure (SMILES),TEAD-luciferase reporter activity (compound concentration: 200 nM),TEAD-luciferase reporter activity (compound concentration: 2 uM),TEAD-luciferase reporter activity (compound concentration: 10 uM)
C=CC(=O)Nc1cccc(Oc2nc(Nc3ccc(N4CCN(C)CC4)cc3)nc3ccsc23)c1,,inactive: -0.395,
C=CC(=O)Nc1cccc(Oc2nc(Nc3ccc(N4CCN(C)CC4)cc3)nc3ccsc23)c1 [Olmutinib],inactive: 1.62,,inactive: 1.25
CC(C)CCNC(=O)[C@@H]1CCCN1C(=O)N(CCC(C)C)CC(=O)NO,inactive: 1.73,inactive: 1.51,inactive: 2.69
